According to the supplement of paper PMC6411743:
± gives the standard deviation of the averaged measurements. The list shows a part of the results, in another mix than the full data. Small differences around the control level are noise.

Amino acid sequences for entries named in this document (tags omitted). A change or cut given only in a name is not applied to a line headed by its entry.
UniProt P53992: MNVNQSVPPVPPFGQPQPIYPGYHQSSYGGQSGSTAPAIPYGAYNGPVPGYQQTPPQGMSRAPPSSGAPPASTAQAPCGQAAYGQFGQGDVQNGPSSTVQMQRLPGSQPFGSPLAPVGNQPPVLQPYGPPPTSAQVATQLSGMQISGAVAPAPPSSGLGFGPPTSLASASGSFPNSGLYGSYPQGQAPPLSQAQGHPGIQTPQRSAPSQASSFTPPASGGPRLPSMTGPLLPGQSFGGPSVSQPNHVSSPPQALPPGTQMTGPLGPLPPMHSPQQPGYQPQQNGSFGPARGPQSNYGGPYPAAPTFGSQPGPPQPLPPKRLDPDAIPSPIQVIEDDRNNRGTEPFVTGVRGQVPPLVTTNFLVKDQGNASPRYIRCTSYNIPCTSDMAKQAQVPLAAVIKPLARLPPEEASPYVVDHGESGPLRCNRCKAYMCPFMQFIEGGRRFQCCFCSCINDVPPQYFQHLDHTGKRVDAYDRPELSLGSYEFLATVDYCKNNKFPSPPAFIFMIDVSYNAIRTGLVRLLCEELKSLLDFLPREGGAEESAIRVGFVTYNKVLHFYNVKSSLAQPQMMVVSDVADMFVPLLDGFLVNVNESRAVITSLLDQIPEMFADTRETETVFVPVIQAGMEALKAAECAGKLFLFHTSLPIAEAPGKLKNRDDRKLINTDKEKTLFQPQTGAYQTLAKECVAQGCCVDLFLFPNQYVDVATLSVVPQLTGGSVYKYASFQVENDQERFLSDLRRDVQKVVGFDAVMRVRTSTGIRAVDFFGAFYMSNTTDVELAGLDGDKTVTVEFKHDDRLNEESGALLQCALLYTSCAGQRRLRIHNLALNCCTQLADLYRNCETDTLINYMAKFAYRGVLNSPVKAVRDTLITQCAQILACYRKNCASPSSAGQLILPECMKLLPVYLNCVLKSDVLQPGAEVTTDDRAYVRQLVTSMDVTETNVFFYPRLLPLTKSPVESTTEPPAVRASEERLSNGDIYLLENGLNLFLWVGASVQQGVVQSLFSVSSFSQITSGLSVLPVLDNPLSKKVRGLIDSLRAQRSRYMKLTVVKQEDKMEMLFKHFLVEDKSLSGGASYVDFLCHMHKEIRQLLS
UniProt P53677: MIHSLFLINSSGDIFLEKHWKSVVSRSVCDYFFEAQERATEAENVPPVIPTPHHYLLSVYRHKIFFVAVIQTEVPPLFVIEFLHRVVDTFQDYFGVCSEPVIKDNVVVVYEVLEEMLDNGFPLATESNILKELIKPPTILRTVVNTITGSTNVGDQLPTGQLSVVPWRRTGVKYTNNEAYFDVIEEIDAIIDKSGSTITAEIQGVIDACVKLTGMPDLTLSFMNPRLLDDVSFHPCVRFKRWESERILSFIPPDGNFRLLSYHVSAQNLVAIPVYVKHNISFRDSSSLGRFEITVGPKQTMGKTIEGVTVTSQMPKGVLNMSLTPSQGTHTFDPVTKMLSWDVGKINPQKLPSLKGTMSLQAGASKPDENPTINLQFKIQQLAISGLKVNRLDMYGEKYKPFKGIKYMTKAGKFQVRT
UniProt P54578: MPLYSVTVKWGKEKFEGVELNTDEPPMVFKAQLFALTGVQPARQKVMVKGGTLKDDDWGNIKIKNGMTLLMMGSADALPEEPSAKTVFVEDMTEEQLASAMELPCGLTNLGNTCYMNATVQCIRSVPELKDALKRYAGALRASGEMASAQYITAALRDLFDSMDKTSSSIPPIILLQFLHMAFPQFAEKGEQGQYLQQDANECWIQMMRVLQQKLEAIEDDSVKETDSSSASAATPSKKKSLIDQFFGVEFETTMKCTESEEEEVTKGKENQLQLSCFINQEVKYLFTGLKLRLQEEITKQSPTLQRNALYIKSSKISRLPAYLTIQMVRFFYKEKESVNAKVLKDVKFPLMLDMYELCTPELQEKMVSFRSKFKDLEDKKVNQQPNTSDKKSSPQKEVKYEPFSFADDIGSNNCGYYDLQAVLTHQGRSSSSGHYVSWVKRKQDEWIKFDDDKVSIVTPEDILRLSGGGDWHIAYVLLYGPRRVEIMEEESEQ
UniProt P55273: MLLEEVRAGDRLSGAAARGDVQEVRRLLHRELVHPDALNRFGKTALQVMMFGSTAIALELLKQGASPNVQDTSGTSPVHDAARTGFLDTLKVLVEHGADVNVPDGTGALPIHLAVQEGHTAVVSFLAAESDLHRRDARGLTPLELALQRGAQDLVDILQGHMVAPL
UniProt P61225: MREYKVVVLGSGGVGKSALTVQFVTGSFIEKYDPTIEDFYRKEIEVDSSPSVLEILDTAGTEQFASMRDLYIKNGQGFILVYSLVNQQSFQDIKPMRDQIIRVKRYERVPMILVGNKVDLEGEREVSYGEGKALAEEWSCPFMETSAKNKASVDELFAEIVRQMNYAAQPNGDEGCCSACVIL
UniProt P67775, whole entry: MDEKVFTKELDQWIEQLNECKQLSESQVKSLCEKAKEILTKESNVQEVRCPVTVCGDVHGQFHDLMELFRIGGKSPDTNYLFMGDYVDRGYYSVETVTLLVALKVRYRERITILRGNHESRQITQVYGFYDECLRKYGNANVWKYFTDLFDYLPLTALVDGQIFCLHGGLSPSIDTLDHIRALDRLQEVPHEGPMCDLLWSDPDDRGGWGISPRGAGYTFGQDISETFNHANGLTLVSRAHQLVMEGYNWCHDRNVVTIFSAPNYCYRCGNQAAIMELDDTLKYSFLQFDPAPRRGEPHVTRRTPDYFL
UniProt P55011: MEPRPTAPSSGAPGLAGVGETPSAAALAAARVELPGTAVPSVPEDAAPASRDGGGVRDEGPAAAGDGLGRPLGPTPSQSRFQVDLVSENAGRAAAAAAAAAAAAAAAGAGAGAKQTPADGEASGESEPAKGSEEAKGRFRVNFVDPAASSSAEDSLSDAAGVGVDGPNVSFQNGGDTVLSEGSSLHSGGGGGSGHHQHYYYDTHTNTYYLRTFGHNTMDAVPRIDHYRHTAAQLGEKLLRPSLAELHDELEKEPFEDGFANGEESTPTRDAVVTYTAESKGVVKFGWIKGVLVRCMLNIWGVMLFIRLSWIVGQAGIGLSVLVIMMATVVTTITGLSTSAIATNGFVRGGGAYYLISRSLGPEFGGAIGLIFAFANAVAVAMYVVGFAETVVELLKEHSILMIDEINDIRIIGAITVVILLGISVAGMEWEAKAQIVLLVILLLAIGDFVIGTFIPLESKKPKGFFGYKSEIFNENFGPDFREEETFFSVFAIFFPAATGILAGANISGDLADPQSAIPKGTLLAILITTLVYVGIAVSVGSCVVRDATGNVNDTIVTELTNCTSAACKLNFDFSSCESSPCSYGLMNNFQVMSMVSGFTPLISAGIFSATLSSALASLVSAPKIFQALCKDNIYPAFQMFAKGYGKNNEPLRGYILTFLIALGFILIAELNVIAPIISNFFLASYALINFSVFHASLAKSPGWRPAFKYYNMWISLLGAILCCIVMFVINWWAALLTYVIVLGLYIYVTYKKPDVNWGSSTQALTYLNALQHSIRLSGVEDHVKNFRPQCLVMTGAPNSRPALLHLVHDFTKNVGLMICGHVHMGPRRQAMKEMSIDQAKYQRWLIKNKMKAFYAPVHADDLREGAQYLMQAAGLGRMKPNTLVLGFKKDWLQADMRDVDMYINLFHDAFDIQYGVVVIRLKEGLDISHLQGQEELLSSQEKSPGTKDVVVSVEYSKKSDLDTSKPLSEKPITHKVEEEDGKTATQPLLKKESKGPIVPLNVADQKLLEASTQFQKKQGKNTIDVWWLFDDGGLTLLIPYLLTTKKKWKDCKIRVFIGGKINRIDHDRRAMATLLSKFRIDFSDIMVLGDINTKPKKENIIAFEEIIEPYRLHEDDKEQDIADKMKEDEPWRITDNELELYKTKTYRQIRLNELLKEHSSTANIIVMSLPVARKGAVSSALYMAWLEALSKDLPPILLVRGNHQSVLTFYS
UniProt P63104: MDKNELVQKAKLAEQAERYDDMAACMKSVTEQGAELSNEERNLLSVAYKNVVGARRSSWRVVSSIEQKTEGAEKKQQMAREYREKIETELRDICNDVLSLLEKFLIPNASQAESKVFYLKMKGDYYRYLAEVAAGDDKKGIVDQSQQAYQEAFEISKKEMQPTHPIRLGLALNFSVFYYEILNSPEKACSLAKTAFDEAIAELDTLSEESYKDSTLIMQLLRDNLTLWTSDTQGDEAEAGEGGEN
UniProt P55347: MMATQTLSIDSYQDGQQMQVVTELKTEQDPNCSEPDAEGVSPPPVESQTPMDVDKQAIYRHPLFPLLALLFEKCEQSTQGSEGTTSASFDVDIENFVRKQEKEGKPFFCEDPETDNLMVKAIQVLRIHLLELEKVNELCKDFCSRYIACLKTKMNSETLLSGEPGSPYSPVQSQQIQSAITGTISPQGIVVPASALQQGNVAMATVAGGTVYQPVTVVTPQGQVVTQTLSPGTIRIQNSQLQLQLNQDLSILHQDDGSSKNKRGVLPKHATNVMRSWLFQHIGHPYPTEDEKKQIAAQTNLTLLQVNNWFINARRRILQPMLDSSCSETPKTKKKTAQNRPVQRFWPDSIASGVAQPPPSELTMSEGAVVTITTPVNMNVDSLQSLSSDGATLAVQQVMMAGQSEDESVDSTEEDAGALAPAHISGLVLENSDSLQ
UniProt P62253: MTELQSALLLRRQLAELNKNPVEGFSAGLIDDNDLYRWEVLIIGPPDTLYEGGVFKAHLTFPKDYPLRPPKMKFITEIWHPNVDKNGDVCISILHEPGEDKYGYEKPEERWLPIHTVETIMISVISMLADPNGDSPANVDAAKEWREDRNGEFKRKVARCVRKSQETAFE
UniProt P63279, whole entry: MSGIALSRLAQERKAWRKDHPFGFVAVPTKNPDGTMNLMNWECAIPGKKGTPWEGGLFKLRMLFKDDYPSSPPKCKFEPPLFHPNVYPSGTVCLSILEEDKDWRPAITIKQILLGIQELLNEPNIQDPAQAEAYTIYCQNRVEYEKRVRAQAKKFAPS
UniProt P55769: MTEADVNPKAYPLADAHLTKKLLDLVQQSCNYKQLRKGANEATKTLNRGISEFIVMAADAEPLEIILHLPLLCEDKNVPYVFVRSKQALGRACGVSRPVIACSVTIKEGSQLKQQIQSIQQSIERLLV
UniProt P83916, whole entry, looked up: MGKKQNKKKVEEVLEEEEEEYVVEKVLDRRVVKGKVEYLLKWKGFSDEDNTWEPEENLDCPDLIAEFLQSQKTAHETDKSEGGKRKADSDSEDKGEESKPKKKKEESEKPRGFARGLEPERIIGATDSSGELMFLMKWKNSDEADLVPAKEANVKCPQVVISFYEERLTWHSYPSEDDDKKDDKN
UniProt Q00534, whole entry: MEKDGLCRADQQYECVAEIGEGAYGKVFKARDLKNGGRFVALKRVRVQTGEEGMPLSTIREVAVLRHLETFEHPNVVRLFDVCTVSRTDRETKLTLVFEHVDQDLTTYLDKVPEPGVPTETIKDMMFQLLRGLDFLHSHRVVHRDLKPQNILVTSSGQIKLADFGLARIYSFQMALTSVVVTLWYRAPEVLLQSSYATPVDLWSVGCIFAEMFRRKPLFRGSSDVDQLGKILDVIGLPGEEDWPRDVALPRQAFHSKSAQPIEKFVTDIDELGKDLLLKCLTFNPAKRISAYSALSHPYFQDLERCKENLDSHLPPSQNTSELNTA
UniProt P61204: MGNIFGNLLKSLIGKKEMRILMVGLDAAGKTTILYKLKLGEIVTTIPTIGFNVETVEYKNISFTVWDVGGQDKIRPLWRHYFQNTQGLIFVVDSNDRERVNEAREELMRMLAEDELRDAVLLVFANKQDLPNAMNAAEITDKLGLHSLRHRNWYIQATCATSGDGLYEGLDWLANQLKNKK
UniProt P61009: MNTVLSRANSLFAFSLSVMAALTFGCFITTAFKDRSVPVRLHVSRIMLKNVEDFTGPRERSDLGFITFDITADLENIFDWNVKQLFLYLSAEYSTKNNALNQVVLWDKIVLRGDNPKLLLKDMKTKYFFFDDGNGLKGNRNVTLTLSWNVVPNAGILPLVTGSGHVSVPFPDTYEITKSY

Compound: Nc1ncnc2c1ncn2[C@@H]1O[C@H](COP(=O)(O)OP(=O)(O)OP(=O)(O)O)[C@@H](O)[C@H]1O [adenosine triphosphate]
Experiment: NP40-soluble protein abundance relative to vehicle (solubility fold change) (ratio); higher = more soluble protein in presence of ATP
Procedure, shortened: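 Data come from three independent experiments in which Dounce-homogenised Jurkat crude lysate was treated at eight concentrations from 0.1 to 10 mM. Treatment ran 10 min at room temperature and then 3 min at 37 °C, after which 0.8% NP40 and benzonase were added for 60 min at 4 °C before ultracentrifugation. The supernatant underwent TMT labelling and LC-MS/MS, and vsn-normalised intensities were expressed as fold change against the detergent-processed vehicle in each replicate.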

Row | Target | NP40-soluble protein abundance (concentration: 0.1mM) | NP40-soluble protein abundance (concentration: 0.5mM) | NP40-soluble protein abundance (concentration: 1mM) | NP40-soluble protein abundance (concentration: 2mM) | NP40-soluble protein abundance (concentration: 4mM) | NP40-soluble protein abundance (concentration: 6mM) | NP40-soluble protein abundance (concentration: 8mM) | NP40-soluble protein abundance (concentration: 10mM)
1 | SEC24C (UniProt P53992) | 1.01 ± 0.039 | 0.983 ± 0.023 | 0.99 ± 0.055 | 0.987 ± 0.057 | 0.98 ± 0.043 | 0.919 ± 0.095 | 0.981 ± 0.019 | 0.984 ± 0.074
2 | UniProt P63244 | 0.978 ± 0.011 | 0.946 ± 0.044 | – | – | – | – | – | –
3 | AP3M2 (UniProt P53677) | 1.08 ± 0.096 | 1.03 ± 0.083 | 1.09 ± 0.019 | 1.08 ± 0.016 | 1.13 ± 0.043 | 1.02 ± 0.047 | 1.06 ± 0.051 | 1.08 ± 0.069
4 | USP14 (UniProt P54578) | 1 ± 0.042 | 1.02 ± 0.03 | – | – | – | – | – | –
5 | CDKN2D (UniProt P55273) | 0.946 ± 0.12 | 0.932 ± 0.093 | 0.959 ± 0.065 | 0.928 ± 0.036 | 0.953 ± 0.046 | 0.953 ± 0.019 | 0.951 ± 0.024 | 0.872 ± 0.045
6 | UniProt P61225 | 1.03 ± 0.087 | 0.987 ± 0.052 | 1.01 ± 0.074 | 0.921 ± 0.091 | 0.92 ± 0.082 | 0.846 ± 0.11 | 0.932 ± 0.065 | 0.932 ± 0.016
7 | PPP2CA (UniProt P67775) | 0.989 ± 0.029 | 1.01 ± 0.07 | 0.959 ± 0.061 | 0.925 ± 0.0053 | 0.908 ± 0.021 | 0.962 ± 0.033 | 0.9033 ± 0.007 | 0.9 ± 0.085
8 | SLC12A2 (UniProt P55011) | 0.984 ± 0.048 | 0.986 ± 0.026 | – | – | – | – | – | –
9 | YWHAZ (UniProt P63104) | 0.894 ± 0.079 | 0.869 ± 0.11 | 0.892 ± 0.2 | 0.94 ± 0.045 | 0.896 ± 0.025 | 0.918 ± 0.17 | 0.8927 ± 0.0068 | 0.819 ± 0.066
10 | UniProt P55347 and related entries | 1.01 ± 0.032 | 1.02 ± 0.096 | – | – | – | – | – | –
11 | UniProt P62253 | 1.09 ± 0.084 | 1.07 ± 0.15 | 1.06 ± 0.053 | 1.05 ± 0.071 | 1 ± 0.07 | 1.01 ± 0.11 | 1.03 ± 0.097 | 0.947 ± 0.049
12 | UniProt P63279 | 0.922 ± 0.11 | 0.929 ± 0.11 | – | – | – | – | – | –
13 | UniProt P55769 | 0.93 ± 0.13 | 0.954 ± 0.15 | 1.03 ± 0.15 | 1.06 ± 0.11 | 1.13 ± 0.13 | 1.23 ± 0.11 | 1.28 ± 0.049 | 1.33 ± 0.24
14 | UniProt P83916 | 1 ± 0.076 | 0.982 ± 0.036 | – | – | – | – | – | –
15 | CDK6 (UniProt Q00534) | 1.04 ± 0.064 | 1.02 ± 0.048 | 0.984 ± 0.047 | 0.999 ± 0.051 | 0.988 ± 0.05 | 0.955 ± 0.058 | 0.966 ± 0.041 | 0.974 ± 0.064
16 | ARF3 (UniProt P61204) | 1.08 ± 0.088 | 1.07 ± 0.042 | 1.05 ± 0.21 | 1.01 ± 0.17 | 1.04 ± 0.13 | 0.961 ± 0.23 | 1.05 ± 0.073 | 0.996 ± 0.08
17 | UniProt P61009 | 1.02 ± 0.038 | 1.03 ± 0.022 | – | – | – | – | – | –

Exported in CSV form: part of the list above
Row,Target,NP40-soluble protein abundance (concentration: 0.1mM),NP40-soluble protein abundance (concentration: 0.5mM),NP40-soluble protein abundance (concentration: 1mM),NP40-soluble protein abundance (concentration: 2mM),NP40-soluble protein abundance (concentration: 4mM),NP40-soluble protein abundance (concentration: 6mM),NP40-soluble protein abundance (concentration: 8mM),NP40-soluble protein abundance (concentration: 10mM)
5,CDKN2D (UniProt P55273),0.946 ± 0.12,0.932 ± 0.093,0.959 ± 0.065,0.928 ± 0.036,0.953 ± 0.046,0.953 ± 0.019,0.951 ± 0.024,0.872 ± 0.045
6,UniProt P61225,1.03 ± 0.087,0.987 ± 0.052,1.01 ± 0.074,0.921 ± 0.091,0.92 ± 0.082,0.846 ± 0.11,0.932 ± 0.065,0.932 ± 0.016
